From the supplement of paper PMC12889115 come the findings set out here.

The other results are listed elsewhere or left out. Values are raw readings; no control value is given beside them.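 Primary screen: polymyxin B was added at a level permeabilizing Salmonella outer membranes while sparing inner membranes. DMSO wells, both with and without polymyxin B, established maximum growth. Plate-to-plate variation meant each plate was ranked on its own, and the lowest-OD600 compounds were selected as hits.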

For this assay, the system named is Salmonella enterica serovar Typhimurium SL1344. As to the kind of experiment: bacterial growth OD600 after 18 h with compound and polymyxin B; higher = more bacterial growth (less inhibition). As to conditions: 50 µM, Mueller-Hinton broth.

For the compound `CC1(C(=O)N2CCCC(N3CCN(c4ccc(F)cc4)CC3)C2)CCCCC1` (centres undefined), the “bacterial growth OD600” value (polymyxin B 1 µg/mL) turned out to be 0.878. In the case of `CCOC(=O)C1(CCOc2ccccc2)CCN(CC)CC1`, the “bacterial growth OD600” value (polymyxin B 0.75 µg/mL) worked out at 0.799. As for `COc1cccc(OCc2nc(C(=O)N(C)Cc3cccc(Cl)c3)co2)c1`, the “bacterial growth OD600” value (polymyxin B 1 µg/mL) is 0.703.

As for `COC(=O)c1cc(CNC(=O)C23CC4CC(CC(C4)C2)C3)cc(NC(=O)Cn2cccn2)c1`, where the note is “polymyxin B 0.75 µg/mL”, the “bacterial growth OD600” value is 0.767.

Take `Cc1cccc(CN2CCCC3(CCN(C(=O)c4ncoc4C)C3)C2=O)c1` (centres undefined): the “bacterial growth OD600” value (polymyxin B 1 µg/mL) came to 0.924. With `COc1ccc(OC)c(CN2CCc3c(cnc(C)c3CNC(=O)c3ccccc3SC)C2)c1`, for the setting “polymyxin B 0.75 µg/mL”, the “bacterial growth OD600” value turned out to be 1.08. Consider `Cc1c[nH]c(CNCc2cccnc2Oc2ccccc2)n1`, for which the “bacterial growth OD600” value (polymyxin B 0.75 µg/mL) was determined as 0.778.

With `O=C(CCN1Cc2ccccc2OC(c2ccccc2F)C1)N1CCCCC1c1cccnc1` (centres undefined), the “bacterial growth OD600” value (polymyxin B 0.75 µg/mL) amounted to 0.

In the case of `CCOc1ccc2nc(N3CCCC3C(=O)NCC3(N4CCOCC4)CCCC3)nc(C)c2c1` (centres undefined), the “bacterial growth OD600” value (polymyxin B 0.75 µg/mL) amounted to 0.778.
